Laboratory results: the supplement of paper PMC10849652
This is one part of the list.

Chains of the proteins cited; added tags and fusions are not shown. Lines headed by an entry give the natural chain unless they say otherwise; changes in a name come on top.
UniProt O75054: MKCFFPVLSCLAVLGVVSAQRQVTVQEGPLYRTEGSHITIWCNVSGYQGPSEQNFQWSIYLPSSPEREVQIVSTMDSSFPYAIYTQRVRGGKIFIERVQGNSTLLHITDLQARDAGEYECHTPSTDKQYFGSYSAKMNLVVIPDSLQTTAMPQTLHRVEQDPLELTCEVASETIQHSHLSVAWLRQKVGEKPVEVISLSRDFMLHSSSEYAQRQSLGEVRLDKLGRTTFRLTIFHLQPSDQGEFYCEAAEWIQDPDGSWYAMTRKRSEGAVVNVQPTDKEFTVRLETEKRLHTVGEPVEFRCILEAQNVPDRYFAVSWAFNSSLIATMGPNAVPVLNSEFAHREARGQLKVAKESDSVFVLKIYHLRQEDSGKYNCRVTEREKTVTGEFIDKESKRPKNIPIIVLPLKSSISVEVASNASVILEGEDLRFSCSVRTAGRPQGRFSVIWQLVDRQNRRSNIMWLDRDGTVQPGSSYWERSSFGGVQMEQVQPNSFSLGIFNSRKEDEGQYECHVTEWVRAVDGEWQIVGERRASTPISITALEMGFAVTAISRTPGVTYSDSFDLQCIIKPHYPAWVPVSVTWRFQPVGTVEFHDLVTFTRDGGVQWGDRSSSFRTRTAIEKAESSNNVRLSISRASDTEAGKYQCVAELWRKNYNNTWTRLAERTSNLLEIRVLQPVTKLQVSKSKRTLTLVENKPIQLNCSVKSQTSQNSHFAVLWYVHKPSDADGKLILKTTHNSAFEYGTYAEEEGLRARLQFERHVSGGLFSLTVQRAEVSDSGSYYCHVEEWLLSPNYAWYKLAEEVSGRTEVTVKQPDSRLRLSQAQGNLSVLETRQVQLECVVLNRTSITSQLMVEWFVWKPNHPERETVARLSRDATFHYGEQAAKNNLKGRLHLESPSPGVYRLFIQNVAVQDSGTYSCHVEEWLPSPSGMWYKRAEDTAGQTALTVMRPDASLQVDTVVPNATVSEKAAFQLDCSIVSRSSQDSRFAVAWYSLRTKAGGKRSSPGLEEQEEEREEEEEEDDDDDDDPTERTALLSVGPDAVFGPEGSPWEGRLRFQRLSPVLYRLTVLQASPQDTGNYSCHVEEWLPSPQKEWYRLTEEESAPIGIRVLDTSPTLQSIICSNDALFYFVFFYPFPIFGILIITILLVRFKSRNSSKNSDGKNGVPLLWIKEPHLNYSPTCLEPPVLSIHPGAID
UniProt P22692: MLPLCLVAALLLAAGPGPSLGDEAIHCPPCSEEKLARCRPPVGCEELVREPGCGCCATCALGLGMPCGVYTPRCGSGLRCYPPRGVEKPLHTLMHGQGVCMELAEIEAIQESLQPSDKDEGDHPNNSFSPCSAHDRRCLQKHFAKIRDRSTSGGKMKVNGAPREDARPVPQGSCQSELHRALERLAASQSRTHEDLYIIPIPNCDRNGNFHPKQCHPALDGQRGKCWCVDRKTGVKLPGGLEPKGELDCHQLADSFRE
UniProt P32019: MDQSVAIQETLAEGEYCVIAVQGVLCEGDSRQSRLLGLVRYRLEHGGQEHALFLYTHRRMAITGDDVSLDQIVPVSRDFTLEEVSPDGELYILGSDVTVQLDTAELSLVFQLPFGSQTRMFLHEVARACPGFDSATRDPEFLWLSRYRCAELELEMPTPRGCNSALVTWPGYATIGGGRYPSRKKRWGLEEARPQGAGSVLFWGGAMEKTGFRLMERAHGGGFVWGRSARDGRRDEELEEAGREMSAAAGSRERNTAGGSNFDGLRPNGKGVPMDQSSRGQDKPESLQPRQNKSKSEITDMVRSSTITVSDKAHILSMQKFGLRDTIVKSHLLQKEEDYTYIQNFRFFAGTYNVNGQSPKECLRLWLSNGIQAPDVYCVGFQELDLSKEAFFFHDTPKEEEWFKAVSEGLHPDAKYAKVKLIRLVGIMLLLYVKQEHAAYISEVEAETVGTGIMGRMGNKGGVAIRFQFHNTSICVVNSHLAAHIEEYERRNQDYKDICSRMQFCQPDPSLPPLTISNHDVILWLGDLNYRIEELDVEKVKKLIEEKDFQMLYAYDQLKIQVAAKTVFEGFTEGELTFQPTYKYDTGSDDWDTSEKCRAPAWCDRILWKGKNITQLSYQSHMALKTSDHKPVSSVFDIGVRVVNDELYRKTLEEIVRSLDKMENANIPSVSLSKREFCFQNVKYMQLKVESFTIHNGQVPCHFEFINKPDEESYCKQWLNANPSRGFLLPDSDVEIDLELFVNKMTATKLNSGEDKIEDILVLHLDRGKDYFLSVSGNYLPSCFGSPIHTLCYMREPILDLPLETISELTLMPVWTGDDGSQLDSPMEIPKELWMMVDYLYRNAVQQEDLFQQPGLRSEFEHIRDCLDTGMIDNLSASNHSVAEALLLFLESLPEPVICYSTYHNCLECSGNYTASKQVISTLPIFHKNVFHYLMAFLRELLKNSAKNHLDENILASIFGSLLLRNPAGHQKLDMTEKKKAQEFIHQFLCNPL
UniProt P42858, whole entry, looked up: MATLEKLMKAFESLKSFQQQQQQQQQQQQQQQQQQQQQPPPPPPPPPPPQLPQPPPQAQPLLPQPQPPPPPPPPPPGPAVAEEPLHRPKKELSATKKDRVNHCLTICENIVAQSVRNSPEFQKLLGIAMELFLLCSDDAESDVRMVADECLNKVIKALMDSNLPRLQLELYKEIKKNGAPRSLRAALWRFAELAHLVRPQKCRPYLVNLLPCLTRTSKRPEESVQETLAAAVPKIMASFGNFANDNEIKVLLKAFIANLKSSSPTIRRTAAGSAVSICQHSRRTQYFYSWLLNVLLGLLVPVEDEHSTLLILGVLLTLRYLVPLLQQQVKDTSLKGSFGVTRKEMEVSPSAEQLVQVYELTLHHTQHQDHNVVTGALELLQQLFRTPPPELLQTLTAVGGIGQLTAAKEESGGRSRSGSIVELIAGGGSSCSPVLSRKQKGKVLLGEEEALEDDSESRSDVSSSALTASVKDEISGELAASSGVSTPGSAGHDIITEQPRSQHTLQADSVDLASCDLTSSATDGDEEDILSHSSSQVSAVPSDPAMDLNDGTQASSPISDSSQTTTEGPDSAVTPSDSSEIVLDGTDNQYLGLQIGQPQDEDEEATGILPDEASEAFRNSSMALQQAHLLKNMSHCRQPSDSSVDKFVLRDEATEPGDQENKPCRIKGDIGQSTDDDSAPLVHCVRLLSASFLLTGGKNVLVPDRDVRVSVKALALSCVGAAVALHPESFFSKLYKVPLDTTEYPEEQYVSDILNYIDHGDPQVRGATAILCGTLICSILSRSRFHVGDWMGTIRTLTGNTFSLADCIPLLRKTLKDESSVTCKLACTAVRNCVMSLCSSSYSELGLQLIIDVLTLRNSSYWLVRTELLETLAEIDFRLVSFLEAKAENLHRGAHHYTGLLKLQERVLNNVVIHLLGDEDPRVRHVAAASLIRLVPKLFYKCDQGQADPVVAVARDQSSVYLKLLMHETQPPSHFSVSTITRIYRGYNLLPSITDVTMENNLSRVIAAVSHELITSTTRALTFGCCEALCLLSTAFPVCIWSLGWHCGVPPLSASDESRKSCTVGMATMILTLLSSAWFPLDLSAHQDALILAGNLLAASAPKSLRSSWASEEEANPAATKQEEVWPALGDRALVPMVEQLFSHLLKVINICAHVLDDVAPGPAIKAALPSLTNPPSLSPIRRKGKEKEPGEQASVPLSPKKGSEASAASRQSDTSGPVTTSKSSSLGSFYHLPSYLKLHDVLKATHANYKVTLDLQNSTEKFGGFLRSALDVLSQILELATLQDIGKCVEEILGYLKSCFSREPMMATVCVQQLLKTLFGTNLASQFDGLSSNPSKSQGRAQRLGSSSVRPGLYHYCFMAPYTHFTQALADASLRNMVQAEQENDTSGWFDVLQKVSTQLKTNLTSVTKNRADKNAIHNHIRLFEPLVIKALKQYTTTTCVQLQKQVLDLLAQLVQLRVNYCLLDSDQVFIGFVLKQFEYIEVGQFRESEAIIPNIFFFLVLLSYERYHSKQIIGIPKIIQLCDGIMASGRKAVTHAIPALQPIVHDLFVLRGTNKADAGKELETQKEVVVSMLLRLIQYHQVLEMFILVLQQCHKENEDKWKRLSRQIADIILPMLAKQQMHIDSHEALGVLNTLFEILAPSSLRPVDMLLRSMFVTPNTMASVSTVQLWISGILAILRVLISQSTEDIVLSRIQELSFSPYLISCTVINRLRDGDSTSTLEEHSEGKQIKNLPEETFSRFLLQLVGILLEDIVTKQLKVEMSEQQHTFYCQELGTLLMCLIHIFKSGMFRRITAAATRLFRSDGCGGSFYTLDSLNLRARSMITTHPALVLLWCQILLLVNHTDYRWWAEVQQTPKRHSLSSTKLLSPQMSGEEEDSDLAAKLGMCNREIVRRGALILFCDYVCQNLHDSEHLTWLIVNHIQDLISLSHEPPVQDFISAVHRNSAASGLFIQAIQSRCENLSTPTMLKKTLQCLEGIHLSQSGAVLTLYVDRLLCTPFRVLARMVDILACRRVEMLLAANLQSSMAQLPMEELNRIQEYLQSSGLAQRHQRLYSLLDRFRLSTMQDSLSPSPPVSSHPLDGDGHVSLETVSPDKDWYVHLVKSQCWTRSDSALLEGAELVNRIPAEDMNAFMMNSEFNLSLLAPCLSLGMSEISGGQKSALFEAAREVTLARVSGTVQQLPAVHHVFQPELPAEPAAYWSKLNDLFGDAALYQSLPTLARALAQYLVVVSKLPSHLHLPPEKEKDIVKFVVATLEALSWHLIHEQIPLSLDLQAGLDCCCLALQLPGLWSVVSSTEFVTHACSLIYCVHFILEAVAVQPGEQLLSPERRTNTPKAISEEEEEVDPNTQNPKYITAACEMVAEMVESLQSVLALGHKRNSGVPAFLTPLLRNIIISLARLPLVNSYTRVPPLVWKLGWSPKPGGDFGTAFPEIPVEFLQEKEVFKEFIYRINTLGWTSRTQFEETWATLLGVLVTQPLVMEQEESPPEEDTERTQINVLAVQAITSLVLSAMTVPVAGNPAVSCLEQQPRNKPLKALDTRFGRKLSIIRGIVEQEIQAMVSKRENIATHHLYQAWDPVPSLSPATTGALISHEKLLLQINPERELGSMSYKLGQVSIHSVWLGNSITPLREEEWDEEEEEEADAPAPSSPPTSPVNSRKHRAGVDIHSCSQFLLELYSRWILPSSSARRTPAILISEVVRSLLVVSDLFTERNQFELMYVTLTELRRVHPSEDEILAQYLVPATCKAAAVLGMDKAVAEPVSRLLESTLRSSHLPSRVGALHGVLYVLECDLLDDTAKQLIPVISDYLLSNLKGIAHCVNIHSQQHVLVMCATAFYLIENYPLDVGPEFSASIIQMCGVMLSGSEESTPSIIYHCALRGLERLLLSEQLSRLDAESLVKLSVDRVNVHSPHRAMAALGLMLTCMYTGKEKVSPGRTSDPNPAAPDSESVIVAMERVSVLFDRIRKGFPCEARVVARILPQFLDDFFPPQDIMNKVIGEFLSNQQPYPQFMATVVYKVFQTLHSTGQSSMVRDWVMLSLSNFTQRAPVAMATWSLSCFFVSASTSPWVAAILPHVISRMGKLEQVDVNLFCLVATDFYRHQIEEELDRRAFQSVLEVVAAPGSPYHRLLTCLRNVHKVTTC
UniProt P38935: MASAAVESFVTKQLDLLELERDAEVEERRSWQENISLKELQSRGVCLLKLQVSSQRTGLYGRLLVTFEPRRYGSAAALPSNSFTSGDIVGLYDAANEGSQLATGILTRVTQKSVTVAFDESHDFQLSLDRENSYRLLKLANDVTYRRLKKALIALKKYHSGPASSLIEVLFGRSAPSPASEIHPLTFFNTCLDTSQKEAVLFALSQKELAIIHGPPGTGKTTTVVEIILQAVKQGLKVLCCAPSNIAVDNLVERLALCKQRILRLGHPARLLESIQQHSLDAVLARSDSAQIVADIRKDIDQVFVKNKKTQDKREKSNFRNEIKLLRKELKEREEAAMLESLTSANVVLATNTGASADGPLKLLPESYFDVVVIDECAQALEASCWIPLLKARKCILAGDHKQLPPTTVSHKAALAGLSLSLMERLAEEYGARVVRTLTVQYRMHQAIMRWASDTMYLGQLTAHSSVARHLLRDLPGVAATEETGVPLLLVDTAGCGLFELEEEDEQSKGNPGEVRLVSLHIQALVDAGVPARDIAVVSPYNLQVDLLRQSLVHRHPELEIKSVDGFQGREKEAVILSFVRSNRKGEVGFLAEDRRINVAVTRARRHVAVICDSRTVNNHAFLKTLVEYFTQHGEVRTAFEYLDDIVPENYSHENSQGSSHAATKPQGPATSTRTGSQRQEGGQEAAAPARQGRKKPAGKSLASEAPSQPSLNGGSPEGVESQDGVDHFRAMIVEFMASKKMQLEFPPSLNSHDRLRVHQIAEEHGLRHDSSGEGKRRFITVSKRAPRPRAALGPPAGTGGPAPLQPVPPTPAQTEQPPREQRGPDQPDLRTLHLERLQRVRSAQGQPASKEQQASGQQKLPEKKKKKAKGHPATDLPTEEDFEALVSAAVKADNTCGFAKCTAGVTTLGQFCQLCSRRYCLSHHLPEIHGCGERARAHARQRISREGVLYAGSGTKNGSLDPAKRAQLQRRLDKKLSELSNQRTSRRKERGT

The targets below were run with Cn1cc(-c2ccc3c(c2)CCN3C(=O)Cc2cccc(C(F)(F)F)c2)c2c(N)ncnc21 (assay: log2 fold change, soluble protein after heating vs DMSO (PISA); higher = thermal stabilisation; K562 lysate, 10 uM; active = over 0.2 and 3.5 SD of the protein, either way, in both replicates (recomputed)).
In short: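 Quantification was by TMTpro 16plex LC-MS/MS with equalised channel sums, applied to the supernatant after 21,000xg for 90 min. Samples were crude K562 extract at 1 mg/mL protein in PBS pH 7.4 with 1 mM MgCl2, treated with 10 μM compound for 30 min, heated for 3 min across 48°C-58°C, pooled and brought to 0.5% NP-40 at 4°C. Values are log-two fold changes in thermal stability relative to solvent controls, from duplicates.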

log2 fold change, inactive:
IL18 (UniProt Q14116) -0.011
IK (UniProt Q13123) 0.002
ID1 (UniProt P41134) 0.005
IGSF3 (UniProt O75054) 0.066
IMPDH2 (UniProt H0Y4R1) -0.066
HSPB11 (UniProt Q9Y547) -0.007
IBTK (UniProt Q9P2D0) -0.01
IGBP1 (UniProt P78318) -0.018
INPP4A (UniProt Q96PE3) 0.123
IGFBP4 (UniProt P22692) -0.022
INPP5B (UniProt P32019) 0.047
HTT (UniProt P42858) 0.072
HYOU1 (UniProt J3QL06) -0.117
IGHA1 (UniProt P01876) 0.886
IFT57 (UniProt Q9NWB7) -0.108
IFT74 (UniProt Q96LB3) 0.013
IDH3G (UniProt P51553) 0.094
IMPAD1 (UniProt Q9NX62) -0.071
ILF3 isoform 7 (UniProt Q12906) 0.014
HSPBAP1 (UniProt Q96EW2) 0.213
ICAM2 (UniProt P13598) -0.035
INO80E (UniProt Q8NBZ0) -0.064
IGHMBP2 (UniProt P38935) -0.039
IGHG1 (UniProt P01857) -0.057

Reprinted at random: 2 entries already listed
log2 fold change, inactive:
ICAM2 (UniProt P13598) -0.035
IMPDH2 (UniProt H0Y4R1) -0.066
